Some peptides are written in HELM: one residue between dots, names in brackets for other building blocks, links after the first $. Non-standard residues stand in square brackets, D forms with d. *: point of attachment. dOrn = NCCC[C@@H](N)C(=O)O; Orn = NCCC[C@H](N)C(=O)O; Cbz = O=C(OCc1ccccc1)*; Boc = CC(C)(C)OC(=O)*; Bn = c1ccc(C*)cc1

One data set is described as follows: general procedure: solution-phase peptide synthesis; isobutylchloroformate/N-methylmorpholine (mixed anhydride); dicyclohexylcarbodii. Conditions: coupling step.
For BOC-Arg(NO2)-Tyr-D-Ala-Phe-Gly-oBzl, the step yield is reported as 87.2%. The substance BOC-Tyr(Bzl)-D-Orn(Z)-Phe-D-Glu(OBzl)2 came in with a step yield of 93.2%.

Substance BOC-Tyr-(BOC)-D-Ala-Phe-Gly-oBzl displayed a step yield of 83.4%. On the same count and under the same terms, with Boc-Y(Bn)[dOrn](Cbz)F[dA]-OH the figure was 82.0%; with Z3-Arg-Tyr(Bzl)-D-Orn(Z)-Phe-D-Ala-OH, 92.0%.

Staying with this data set, now noted: late stage modification step.
H-Y[Orn]F[dE]-OH: the step yield amounted to 98.8%.

PEPTIDE1{R.Y.[dA].F.G}$$$$V2.0 came in with a step yield of 100%. The same measure, in the same setting: with PEPTIDE1{R.Y.[dOrn].F.[dA]}$$$$V2.0 the figure was 80.8%.

The substance PEPTIDE1{R.Y.[dR].F.[dA]}$$$$V2.0 returned a step yield of 76.9%.

Turning to TFA·H-Tyr(Bzl)-D-Orn(Z)-Phe-D-Ala-OH, the step yield amounted to 100%. Still for that read-out and setting: with TFA·Tyr-D-Ala-Phe-Gly-oBzl the figure was 100%.

For the origin of these results see patent publication EP0779076A1 (priority 1994, dated 1996).
